Results are given in words; binding and its absence hold for the method and conditions named. In cells and extracts the contact can be indirect. Some binding calls cover weakened binding; strength is not graded here.
What was measured:
[1] = target: histone deacetylase 1 (HDAC1) (mouse (endogenous in IDG-SW3)) (UniProt O09106); test: co-IP; reciprocal: nuclear extracts from IDG-SW3 cells precipitated with anti-HDAC1 or anti-HDAC2 antibody or control IgG on Dynabeads Protein G, 4 degrees overnight, 50 mM Tris-HCl pH 8.0, 0.1 mM EDTA, 5% glycerol, 100 mM KCl, 0.1% NP-40; immunoblot for CCAR2
[2] = target: CCAR2 (mouse (endogenous in IDG-SW3)) (UniProt Q8VDP4); test: co-IP; nuclear extracts from IDG-SW3 cells (also mock and lncRNA953Rik-overexpressing cells) precipitated with anti-CCAR2 antibody or control IgG on Dynabeads Protein G, 4 degrees overnight, 50 mM Tris-HCl pH 8.0, 0.1 mM EDTA, 5% glycerol, 100 mM KCl, 0.1% NP-40; immunoblot for HDAC1, HDAC2, HDAC3

Sequences of proteins named here, by UniProt entry; tags and fusion partners are left off.
UniProt O09106: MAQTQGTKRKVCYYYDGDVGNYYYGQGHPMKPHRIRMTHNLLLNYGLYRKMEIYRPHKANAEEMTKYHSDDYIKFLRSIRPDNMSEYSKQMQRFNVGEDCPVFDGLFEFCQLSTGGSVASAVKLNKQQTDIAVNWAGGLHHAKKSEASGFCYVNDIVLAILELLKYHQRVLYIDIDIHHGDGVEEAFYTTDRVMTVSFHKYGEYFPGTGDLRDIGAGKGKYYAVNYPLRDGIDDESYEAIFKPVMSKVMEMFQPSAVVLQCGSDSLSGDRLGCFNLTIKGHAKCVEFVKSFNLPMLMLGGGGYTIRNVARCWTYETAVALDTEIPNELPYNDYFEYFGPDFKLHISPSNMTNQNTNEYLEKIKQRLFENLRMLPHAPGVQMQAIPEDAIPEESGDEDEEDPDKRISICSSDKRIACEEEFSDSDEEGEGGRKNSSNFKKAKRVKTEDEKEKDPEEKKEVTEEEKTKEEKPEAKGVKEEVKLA
UniProt Q8VDP4: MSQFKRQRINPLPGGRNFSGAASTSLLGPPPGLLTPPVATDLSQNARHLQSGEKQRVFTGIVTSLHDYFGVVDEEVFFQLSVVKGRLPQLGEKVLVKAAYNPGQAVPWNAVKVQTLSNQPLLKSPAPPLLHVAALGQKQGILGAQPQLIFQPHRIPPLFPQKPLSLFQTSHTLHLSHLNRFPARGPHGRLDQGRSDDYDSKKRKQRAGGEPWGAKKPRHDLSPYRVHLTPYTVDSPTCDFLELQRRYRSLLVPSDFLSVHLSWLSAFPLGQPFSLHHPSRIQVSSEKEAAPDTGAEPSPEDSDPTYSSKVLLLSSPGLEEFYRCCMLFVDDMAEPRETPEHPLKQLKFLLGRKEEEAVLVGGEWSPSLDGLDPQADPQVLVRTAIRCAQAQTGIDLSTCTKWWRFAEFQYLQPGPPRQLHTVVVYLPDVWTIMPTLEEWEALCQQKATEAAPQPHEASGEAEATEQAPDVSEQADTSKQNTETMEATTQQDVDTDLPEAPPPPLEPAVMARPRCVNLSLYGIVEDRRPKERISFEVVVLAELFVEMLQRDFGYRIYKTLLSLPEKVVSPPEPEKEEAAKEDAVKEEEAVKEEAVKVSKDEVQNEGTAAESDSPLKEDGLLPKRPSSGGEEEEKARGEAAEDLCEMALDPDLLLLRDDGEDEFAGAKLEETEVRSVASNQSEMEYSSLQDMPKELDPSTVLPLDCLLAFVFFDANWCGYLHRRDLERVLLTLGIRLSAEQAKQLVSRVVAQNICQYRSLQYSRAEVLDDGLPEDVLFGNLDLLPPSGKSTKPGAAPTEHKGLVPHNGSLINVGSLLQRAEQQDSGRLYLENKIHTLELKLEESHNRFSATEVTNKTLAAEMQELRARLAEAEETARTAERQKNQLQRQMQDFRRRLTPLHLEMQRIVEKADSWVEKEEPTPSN

| Substance | binding [1] | binding [2] |
| --- | --- | --- |
| CCAR2 (from UniProt Q8VDP4 1-922) | binds |  |
| histone deacetylase 1 (HDAC1) (from UniProt O09106 1-482) |  | binds |
